Results on 63 compounds are retold here after PubChem BioAssay AID445 (National Center for Advancing Translational Sciences (NCATS), 2006).

Some of the results follow. The main result of the screen is listed elsewhere. These columns were measured beside it and carry no call. Compounds called inactive in the main read-out are mostly missing here. Words in brackets tell the shape of the fitted curve; partial curves, single points and poor fits give uncertain potencies.

The assay is described as follows: IkB Signaling. As to conditions: ABC-DLBCL IkBa-CBG/CBR dual luciferase ratio (green luciferase fused to IkBa over red control in OCI-Ly3 lymphoma cells), 4 h. The gist of the method: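 Luminescence ratio of IκBα-fused green versus native red beetle luciferase in OCI-Ly3 cells, 4 h post-doxycycline with compound; red signal alone, scaled from basal (0%) to zero light (-100%), flagged nonspecific or cytotoxic effects.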
Setting [1] is: measured here: control luc red channel unless noted.
Where [2] appears, read: measured here: IkB-luc green channel.
Setting [3] is: measured here: control luc red channel.

As usually defined, the AC50 is the concentration giving half of the maximal activity seen. Regarding `COc1cc(C(=O)Nc2sc3c(c2C#N)CCCC3)c(Br)c(OC)c1OC`, the concentration at half-maximal activity (AC50) under setting [1] was 0.398 µM [rising, full curve].
On the same count and under the same terms, as for `Cc1cccc(OCC(=O)Nc2nnc(S(=O)(=O)N3CCCCCC3)s2)c1`, the figure is 3.16 µM [rising, partial curve].
Same read-out and setting: in the case of `CS(=O)(=O)c1ncc(Cl)c(C(=O)N(Cc2ccc(Cl)cc2)Cc2ccco2)n1` it was 3.16 µM [falling, full curve].
The same measure, in the same setting: in the case of `COc1cc(Cl)c(C)cc1NC(=O)c1c(C)oc2nc(C)nc(N3CCCC3)c12` it was 39.8 µM [falling, single point]; in that of `CCc1nnc(NC(=O)CSc2nccn2Cc2ccccc2)s1`, 39.8 µM [falling, partial curve, poor fit]; in that of `O=C1CCCc2cc(S(=O)(=O)N3CCCC(C(=O)NCc4ccccc4Cl)C3)ccc2N1` (stereo not given), 3.98 µM [falling, full curve, poor fit].
On to `O=C(CSc1nc(-c2ccco2)nc2cc(=O)[nH]n12)Nc1ccc(F)cc1`, for which, under setting [1], the AC50 is 20 µM [falling, single point].
Same read-out and setting: as for `COc1ccccc1NC(=O)C1=C(C)Nc2nnnn2C1c1cc(Br)ccc1OC` (stereo not given), the figure is 25.1 µM [falling, single point].
`COc1ccc(C2CC(=O)Nc3cc4c(cc32)OCO4)c(OC)c1` (stereo not given): the AC50 under setting [1] is 39.8 µM [falling, single point].
Turning to `Cc1nc2nc(COc3ccccc3)[nH]n2c(=O)c1C`, under setting [1], the AC50 was 7.94 µM [falling, partial curve].
Consider `Cc1ccccc1OCC(=O)Nc1ccc2[nH]c(=O)sc2c1`, for which the AC50 under setting [1] is 39.8 µM [falling, single point].
Still for that read-out and setting: in the case of `CCOC(=O)N1CCC(NC(=O)c2ccc3c(c2)N(Cc2ccc(F)cc2)C(=O)c2ccccc2S3=O)CC1` (stereo not given) it was 12.6 µM [falling, partial curve]; in that of `CS(=O)(=O)Nc1ccc(Cc2ccc(NS(C)(=O)=O)cc2)cc1`, 25.1 µM [falling, partial curve].
On the same count and under the same terms, in the case of `Cc1ccc(CCNC(=O)C(C)n2nc(C)c3c(C)n(-c4ccc(C)cc4)nc3c2=O)cc1` (stereo not given) it was 15.8 µM [falling, partial curve]; in that of `CCc1ccc(C2CC(=O)c3c([nH]c(C(=O)OC4CCCCCC4)c3C)C2)cc1` (stereo not given), 2 µM [rising, full curve]; in that of `CC(=O)c1ccc(NC(=O)COc2ccccc2-c2nc(C(C)C)no2)cc1`, 15.8 µM [falling, partial curve].
On the same count and under the same terms, as for `OCc1cn(-c2ccccc2)nc1-c1ccc2c(c1)OCCO2`, the figure is 20 µM [falling, single point].
For the compound `COc1ccc(C)cc1Nc1c2c(nc3ccccc13)CCC2`, the AC50 under setting [1] is 6.31 µM [rising, single point].
In the case of `O=C(c1ccc(Cl)cc1)N1CCC(c2nc(-c3cccs3)no2)CC1`, the AC50 was 25.1 µM [falling, partial curve] under setting [2] and 15.8 µM [falling, partial curve] under setting [3].
For `O=C(COc1ccccc1)Nc1nnc2n1CCS2`, under setting [1], the AC50 was 0.126 µM [falling, single point].
On the same count and under the same terms, in the case of `CC(C)(C)C(=O)Cn1c(=O)n(CCCCCC(=O)NCc2ccccc2Cl)c(=O)c2sccc21` it was 10 µM [falling, partial curve]; in that of `COc1cc(OC)cc(-c2nc3nc(C)c(CCC(=O)Nc4ccccc4)c(C)n3n2)c1`, 25.1 µM [falling, partial curve]; in that of `CCC(=O)Nc1ccc(C)cc1-c1nc2ccccc2n(CC(=O)c2ccc(C)cc2)c1=O`, 10 µM [falling, single point].
Same read-out and setting: in the case of `CC(C)(C)OC(=O)N1CCC(c2c(C(=O)NCc3ccco3)cnn2-c2ccc(F)cc2F)CC1` it was 12.6 µM [falling, partial curve]; in that of `Cc1noc2ncnc(N3CCCC(C(=O)Nc4cc(F)ccc4F)C3)c12` (stereo not given), 3.98 µM [falling, partial curve].
Same read-out and setting: as for `COc1ccccc1NC(=O)C1=C(C)Nc2nc(-c3ccco3)nn2C1c1cccc(C)c1` (stereo not given), the figure is 31.6 µM [falling, partial curve].
In the case of `CCOC(=O)c1c(C)c(C(=O)NCc2ccc(Cl)cc2)c(C)n1C`, the AC50 under setting [1] is 1.58 µM [rising, full curve, poor fit].
Same read-out and setting: as for `CCc1ccc(-n2c(=O)c3c(C)c(C(=O)N(C)C)sc3n(CC(=O)Nc3cc(Cl)ccc3C)c2=O)cc1`, the figure is 0.00631 µM [rising, full curve].
Turning to `CCOCC(=O)Nc1ccc(F)c(F)c1`, the AC50 under setting [1] is 2.51 µM [falling, full curve].
Same read-out and setting: in the case of `O=C(O)[C@@H]1CSC2(CCSC2)N1` (stereo not given in full) it was 12.6 µM [falling, partial curve].
Same read-out and setting: as for `C=CCN=C(NC#N)SCC(=O)c1cccc(OC)c1`, the figure is 15.8 µM [falling, partial curve].
Still for that read-out and setting: as for `CN(C)/C=C/C(=O)c1nnn(C2CCCCC2)c1NC1CCCCC1`, the figure is 10 µM [falling, partial curve]; as for `Cc1ccc(CNC(=O)c2cc(=O)c3cc(C)c(C)cc3o2)cc1`, 7.94 µM [rising, single point].
In the case of `CC1CCCCN1Cc1c(O)ccc2c(=O)c(-c3ccc(Cl)cc3)coc12` (stereo not given), under setting [1], the AC50 is 0.501 µM [rising, full curve, poor fit].
Same read-out and setting: in the case of `COc1ccc(CNC(=O)C2CCCN(C(=O)c3cnn(-c4ccc(F)cc4)c3-n3cccc3)C2)cc1` (stereo not given) it was 12.6 µM [falling, partial curve].
For the compound `CCOc1ccc(CC(=O)NCCc2sc(-c3cccc(F)c3)nc2C)cc1`, the AC50 under setting [1] is 20 µM [falling, single point].
Same read-out and setting: in the case of `CCOc1cccc2sc(NC(=O)c3ccc(S(=O)(=O)N4CCCCC4)cc3)nc12` it was 7.94 µM [falling, partial curve]; in that of `Cc1nn(-c2ccccn2)c2c1C(c1ccsc1)C1=C(CCCC1=O)N2` (stereo not given), 20 µM [falling, single point].
Still for that read-out and setting: in the case of `CC1CCN(S(=O)(=O)c2ccc3c(ccc(=O)n3CC(=O)NCc3ccccc3)c2)CC1` it was 0.158 µM [falling, full curve, poor fit]; in that of `Cc1ccc(CCNC(=O)c2oc(=O)c3ccccc3c2-c2ccc(C)cc2)cc1`, 7.94 µM [falling, partial curve]; in that of `CCc1ccc2oc(C(=O)NCC(c3ccc(Cl)cc3)N3CCOCC3)c(C)c2c1` (stereo not given), 20 µM [falling, partial curve].
For `COc1cc2cc(C(c3nnnn3C3CCCCC3)N(C)C3CCCCC3)c(=O)[nH]c2cc1OC` (stereo not given), the AC50 under setting [1] was 25.1 µM [falling, single point].
The same measure, in the same setting: in the case of `Cc1ccc(-n2ncc3c(N4CCCCC4)ncnc32)cc1Cl` it was 1.26 µM [falling, partial curve].
The same measure, in the same setting: as for `COc1cccc(NC(=O)c2nnn(CCc3ccccc3)c2N)c1`, the figure is 10 µM [falling, partial curve]; as for `Cc1ccc(NCc2nnc(SCc3ccc(C#N)cc3)n2Cc2ccco2)c(C)c1`, 25.1 µM [falling, partial curve]; as for `CC(=O)Nc1ccc(NC(=O)CCc2c(C)nc3c(c(C)nn3-c3ccc(C)cc3)c2C)cc1`, 10 µM [falling, partial curve].
On the same count and under the same terms, as for `CC(=O)Nc1ccccc1-c1nc2ccccc2n(C(C)C(=O)Nc2cc(Cl)ccc2C)c1=O` (stereo not given), the figure is 3.16 µM [rising, partial curve]; as for `CCN(CC)S(=O)(=O)c1nnc(NC(=O)COc2ccc(C)cc2)s1`, 0.501 µM [rising, full curve, poor fit].
For `Cc1ccc(C)c(NC(=O)CSc2nnc(CNC(=O)c3ccccc3)n2-c2ccccc2)c1`, the AC50 under setting [1] was 15.8 µM [falling, partial curve].
Still for that read-out and setting: in the case of `O=C(Nc1ccccc1Cl)c1ccc(F)c(S(=O)(=O)NCc2ccc(Cl)c(Cl)c2)c1` it was 25.1 µM [falling, partial curve]; in that of `COc1ccc(CN2CCCN(CC(=O)Nc3cc(C)ccc3C)S2(=O)=O)cc1`, 12.6 µM [falling, partial curve, poor fit]; in that of `O=C(O)CCC(=O)c1ccc2ccc3cccc4ccc1c2c34`, 0.631 µM [falling, full curve].
On the same count and under the same terms, in the case of `CCOC(=O)Cn1c(C2CC(=O)N(c3ccc(C)cc3)C2)nc2ccccc21` (stereo not given) it was 25.1 µM [falling, partial curve].
Consider `O=C(c1ccncc1)c1ccc(N2CCN(C3CC(=O)N(Cc4ccccc4)C3=O)CC2)cc1` (stereo not given), for which the AC50 reads like this: under setting [2], 2 µM [falling, partial curve]; under setting [3], 10 µM [falling, partial curve].
Regarding `CC1=C(C(=O)OC2CCCC2)C(c2ccc(C)o2)C2=C(CC(c3cccs3)CC2=O)N1` (stereo not given), under setting [1], the AC50 was 5.01 µM [falling, partial curve].
On the same count and under the same terms, as for `Cc1cc(C)c(-c2cc(C(=O)Nc3c(C)n(C)n(-c4ccccc4)c3=O)[nH]n2)c(O)c1`, the figure is 12.6 µM [falling, partial curve]; as for `CCc1ccc(C2=CC(c3cccc(C)c3)n3c(nc4ccccc43)N2)cc1` (stereo not given), 0.794 µM [falling, partial curve].
Still for that read-out and setting: in the case of `Cc1cccc(N(CC(=O)NCc2ccccc2)S(C)(=O)=O)c1C` it was 2 µM [falling, partial curve, poor fit].
Still for that read-out and setting: in the case of `Cc1ccc(C)c(NC(=O)Cn2cnc3c(oc4ccccc43)c2=O)c1` it was 25.1 µM [falling, single point].
`Cc1cc(C)cc(-n2nnnc2SCC(=O)Nc2cccc(NC(=O)c3ccco3)c2)c1`: the AC50 under setting [1] is 15.8 µM [falling, partial curve].
The same measure, in the same setting: as for `COc1ccc(CNC(=O)CSCc2nc(-c3ccccc3F)oc2C)cc1`, the figure is 15.8 µM [falling, partial curve]; as for `COc1ccccc1-c1cc(C(=O)N2CCN(c3ccccc3)CC2)no1`, 0.631 µM [falling, full curve].
Same read-out and setting: in the case of `c1coc(CN(Cc2cccs2)Cc2nnnn2C2CCCCC2)c1` it was 39.8 µM [falling, single point].
